Results reported in the supplement of paper PMC4635364.
Structures can show the parent of a compound that is named as a salt. Some of the results follow. Repeats in this data set agree poorly, so a single value says little.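 Human fetal ventral-midbrain neural progenitor line ReNCell VM, differentiated without mitogens. Images stained for doublecortin (early neurons) or tyrosine hydroxylase (dopaminergic neurons) were scored by blinded raters against untreated wells (0 = no change). Repeats and both raters were averaged, and compounds averaging 2 or higher were picked as hits for retesting.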

Test system: ReNCell VM
Assay: neuronal differentiation score (DCX+ cell fraction vs untreated, manual image score) (score (-3 to 3)); higher = more neuronal differentiation
Settings: library: Tocriscreen; 2 uM; 2 weeks

Neuronal differentiation score, inactive:
O=[N+]([O-])c1cc2nc(O)c(O)nc2cc1[N+](=O)[O-] 0
CCOC(=O)[C@]12CC1/C(=N\O)c1ccccc1O2 (stereo partly specified) 0
CC(C)(Sc1ccc(CCN(CCCCC2CCCCC2)C(=O)NC2CCCCC2)cc1)C(=O)O 0
COc1cc2c(cc1OC)-c1c/c(=N\c3c(C)cc(C)cc3C)n(C)c(=O)n1CC2 [Trequinsin hydrochloride] 0
COc1ccccc1OCCNCC(O)COc1cccc2[nH]c3ccccc3c12 (stereo unspecified) [Carvedilol] 0
O=C(/C=C/c1ccc(O)c(O)c1)OCCc1ccccc1 [Caffeic acid phenethyl ester] 1
Cc1ccc2c(c1)c1c3n2CCNC3CCC1 (stereo unspecified) [Pirlindole mesylate] 0
O=C1CCC(N2C(=O)c3ccccc3C2=O)C(=O)N1 (stereo unspecified) [Thalidomide] 0
Cc1ccc(O)c(N=Nc2ccccc2)n1 0
CC#CCOC(=O)c1c(C)nc2sc3c(c2c1N)CCC(O)C3 (stereo unspecified) 0
CCC(=O)O[C@]1(C(=O)SCF)[C@H](C)C[C@H]2[C@@H]3C[C@H](F)C4=CC(=O)C=C[C@]4(C)[C@@]3(F)[C@@H](O)C[C@@]21C [Fluticasone propionate] 0
Nc1nc(N)nc(-c2cc(Cl)ccc2Cl)n1 [Irsogladine maleate] 0
NCCc1c[nH]cn1 [Histamine dihydrochloride] 0
C[N+](C)(C)CCCCCNCC12CC3CC(CC(C3)C1)C2 0
Brc1c(NC2=NCCN2)ccc2nccnc12 0
CCC1=C(C)CN(C(=O)NCCc2ccc(S(=O)(=O)NC(=O)N[C@H]3CC[C@H](C)CC3)cc2)C1=O [Glimepiride] 0

2 records drawn at random from those above, as already listed:
Neuronal differentiation score, inactive:
Nc1nc(N)nc(-c2cc(Cl)ccc2Cl)n1 [Irsogladine maleate] 0
CCOC(=O)[C@]12CC1/C(=N\O)c1ccccc1O2 (stereo partly specified) 0
